Binding data for three substances are collected here from article PMC8093973.

By UniProt entry, the sequences of proteins in these tests, tags left out. Where a name states a change or a piece, a line headed by the entry shows the natural chain unless it says otherwise. Residues count along the entry.
UniProt Q9Y6G5: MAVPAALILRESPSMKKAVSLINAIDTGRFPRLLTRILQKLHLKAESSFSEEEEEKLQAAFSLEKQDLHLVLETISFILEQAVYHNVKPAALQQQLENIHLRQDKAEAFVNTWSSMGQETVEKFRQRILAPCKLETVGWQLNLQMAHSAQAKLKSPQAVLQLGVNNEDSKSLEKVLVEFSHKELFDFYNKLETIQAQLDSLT
N-terminal of COMMD10 (amino acids 1-132): residues 1-132 of Q9Y6G5
UniProt Q04206: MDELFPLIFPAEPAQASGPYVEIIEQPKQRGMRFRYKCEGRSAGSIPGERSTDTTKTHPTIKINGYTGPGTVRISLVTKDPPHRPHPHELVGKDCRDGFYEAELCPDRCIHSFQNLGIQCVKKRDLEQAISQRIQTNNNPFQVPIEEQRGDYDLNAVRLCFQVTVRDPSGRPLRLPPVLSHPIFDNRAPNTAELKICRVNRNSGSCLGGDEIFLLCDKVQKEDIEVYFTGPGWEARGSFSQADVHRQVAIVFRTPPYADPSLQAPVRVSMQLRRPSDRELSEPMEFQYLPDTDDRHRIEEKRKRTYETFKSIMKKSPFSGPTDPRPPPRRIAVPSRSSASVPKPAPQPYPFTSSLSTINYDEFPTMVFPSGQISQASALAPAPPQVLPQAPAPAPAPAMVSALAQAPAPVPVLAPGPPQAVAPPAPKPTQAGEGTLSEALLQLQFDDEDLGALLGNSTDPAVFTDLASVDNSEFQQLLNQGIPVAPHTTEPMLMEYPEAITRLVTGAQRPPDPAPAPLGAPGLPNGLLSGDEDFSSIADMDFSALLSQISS

These are yes or no findings as the source states them, for the method shown. In cells and extracts the contact can be indirect. Some entries that bind do so weakly or less than the wild type.

Assay [1] addresses COMMD10 (copper metabolism MURR1 domain-containing 10), endogenous (human (endogenous in HepG2)) (UniProt Q9Y6G5). The assay is described as follows: co-IP; endogenous COMMD10 immunoprecipitated from HepG2 cell lysates, NF-κB subunits blotted.
Assay [2] has as its target COMMD10 (construct of the GST pull-down with p65 truncations, Figure 3F) (UniProt Q9Y6G5). Nature of the assay: pull-down; GST pull-down with truncations of COMMD10 (Figure 3E) and of p65 (Figure 3F); which partner carried GST is not told.
Assay [3] concerns the target N-terminal of COMMD10 (amino acids 1-132) (UniProt Q9Y6G5). The description is as above.

With “NF-κB p65, endogenous (from UniProt Q04206 1-551)”, the binding entry in assay [1] was “binds”.

For the substance “truncated mutant p65 (amino acids 1-305), Rel homology domain (from UniProt Q04206 1-305) (domain or fragment)”, in assay [2], the binding result is “binds”.

“wild type p65 (construct of the GST pull-down) (from UniProt Q04206 1-551)”: the binding entry in assay [2] and in assay [3] was “binds” each time.
